# Measured values taken from the supplement of paper PMC7666118.
# Sequences of proteins named here, by UniProt entry; tags and fusion partners are left off. A change or cut given only in a name is not applied to a line headed by its entry.
# UniProt Q8N584: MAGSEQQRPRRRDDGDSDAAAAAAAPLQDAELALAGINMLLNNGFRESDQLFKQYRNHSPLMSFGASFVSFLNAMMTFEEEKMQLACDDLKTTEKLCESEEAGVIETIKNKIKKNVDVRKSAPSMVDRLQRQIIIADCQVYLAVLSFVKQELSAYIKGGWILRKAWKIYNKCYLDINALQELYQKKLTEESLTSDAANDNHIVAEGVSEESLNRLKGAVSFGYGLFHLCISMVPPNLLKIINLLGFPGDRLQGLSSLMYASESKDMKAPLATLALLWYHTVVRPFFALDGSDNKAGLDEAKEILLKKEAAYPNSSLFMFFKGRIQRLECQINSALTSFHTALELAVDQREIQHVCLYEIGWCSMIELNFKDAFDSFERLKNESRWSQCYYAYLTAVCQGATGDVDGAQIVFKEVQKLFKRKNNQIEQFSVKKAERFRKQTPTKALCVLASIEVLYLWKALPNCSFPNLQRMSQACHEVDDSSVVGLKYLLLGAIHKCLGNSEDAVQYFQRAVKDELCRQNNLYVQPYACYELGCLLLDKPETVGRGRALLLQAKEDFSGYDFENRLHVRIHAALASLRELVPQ
# UniProt Q8IWV7: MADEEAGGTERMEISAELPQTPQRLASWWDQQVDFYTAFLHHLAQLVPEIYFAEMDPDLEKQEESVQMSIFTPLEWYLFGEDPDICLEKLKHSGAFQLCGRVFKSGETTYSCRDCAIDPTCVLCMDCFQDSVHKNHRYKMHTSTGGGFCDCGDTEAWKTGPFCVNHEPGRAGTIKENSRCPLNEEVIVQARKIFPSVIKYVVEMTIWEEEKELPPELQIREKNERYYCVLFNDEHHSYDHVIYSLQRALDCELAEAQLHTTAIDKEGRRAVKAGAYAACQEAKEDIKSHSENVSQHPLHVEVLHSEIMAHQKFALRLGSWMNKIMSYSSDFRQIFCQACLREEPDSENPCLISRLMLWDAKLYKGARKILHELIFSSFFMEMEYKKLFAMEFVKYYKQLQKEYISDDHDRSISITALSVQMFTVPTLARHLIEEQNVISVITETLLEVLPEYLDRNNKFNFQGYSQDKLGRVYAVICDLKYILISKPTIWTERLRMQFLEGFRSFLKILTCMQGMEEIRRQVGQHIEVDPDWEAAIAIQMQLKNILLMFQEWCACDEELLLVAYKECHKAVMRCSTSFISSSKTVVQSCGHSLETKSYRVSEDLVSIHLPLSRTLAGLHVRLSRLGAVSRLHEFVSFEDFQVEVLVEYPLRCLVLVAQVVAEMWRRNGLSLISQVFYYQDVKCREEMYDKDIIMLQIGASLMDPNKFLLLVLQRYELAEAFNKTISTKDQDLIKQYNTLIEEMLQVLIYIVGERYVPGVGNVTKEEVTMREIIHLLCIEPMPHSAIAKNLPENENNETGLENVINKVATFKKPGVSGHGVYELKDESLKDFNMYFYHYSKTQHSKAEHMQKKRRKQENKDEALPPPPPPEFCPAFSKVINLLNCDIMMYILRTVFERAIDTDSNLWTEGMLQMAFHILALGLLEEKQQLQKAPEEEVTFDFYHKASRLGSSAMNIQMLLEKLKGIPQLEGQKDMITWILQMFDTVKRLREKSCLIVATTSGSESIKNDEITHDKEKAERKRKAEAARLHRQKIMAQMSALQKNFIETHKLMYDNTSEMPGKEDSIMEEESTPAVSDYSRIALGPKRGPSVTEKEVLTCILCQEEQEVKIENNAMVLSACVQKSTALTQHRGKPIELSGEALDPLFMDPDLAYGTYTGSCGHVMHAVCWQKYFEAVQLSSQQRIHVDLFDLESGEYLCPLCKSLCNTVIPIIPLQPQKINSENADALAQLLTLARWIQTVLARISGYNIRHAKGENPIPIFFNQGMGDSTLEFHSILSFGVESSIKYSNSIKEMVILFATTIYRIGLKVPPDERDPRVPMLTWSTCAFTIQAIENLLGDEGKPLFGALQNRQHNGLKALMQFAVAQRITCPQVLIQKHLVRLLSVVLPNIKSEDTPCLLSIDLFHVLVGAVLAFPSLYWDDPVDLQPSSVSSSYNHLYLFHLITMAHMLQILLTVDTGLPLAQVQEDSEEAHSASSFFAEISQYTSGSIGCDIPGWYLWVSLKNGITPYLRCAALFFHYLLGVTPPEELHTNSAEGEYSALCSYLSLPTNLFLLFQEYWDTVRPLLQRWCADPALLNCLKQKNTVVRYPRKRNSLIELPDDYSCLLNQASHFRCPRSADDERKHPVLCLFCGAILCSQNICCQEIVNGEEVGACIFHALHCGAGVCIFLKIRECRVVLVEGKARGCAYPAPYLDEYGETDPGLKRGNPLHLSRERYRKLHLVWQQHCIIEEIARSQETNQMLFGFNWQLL
# UniProt Q9NYU2: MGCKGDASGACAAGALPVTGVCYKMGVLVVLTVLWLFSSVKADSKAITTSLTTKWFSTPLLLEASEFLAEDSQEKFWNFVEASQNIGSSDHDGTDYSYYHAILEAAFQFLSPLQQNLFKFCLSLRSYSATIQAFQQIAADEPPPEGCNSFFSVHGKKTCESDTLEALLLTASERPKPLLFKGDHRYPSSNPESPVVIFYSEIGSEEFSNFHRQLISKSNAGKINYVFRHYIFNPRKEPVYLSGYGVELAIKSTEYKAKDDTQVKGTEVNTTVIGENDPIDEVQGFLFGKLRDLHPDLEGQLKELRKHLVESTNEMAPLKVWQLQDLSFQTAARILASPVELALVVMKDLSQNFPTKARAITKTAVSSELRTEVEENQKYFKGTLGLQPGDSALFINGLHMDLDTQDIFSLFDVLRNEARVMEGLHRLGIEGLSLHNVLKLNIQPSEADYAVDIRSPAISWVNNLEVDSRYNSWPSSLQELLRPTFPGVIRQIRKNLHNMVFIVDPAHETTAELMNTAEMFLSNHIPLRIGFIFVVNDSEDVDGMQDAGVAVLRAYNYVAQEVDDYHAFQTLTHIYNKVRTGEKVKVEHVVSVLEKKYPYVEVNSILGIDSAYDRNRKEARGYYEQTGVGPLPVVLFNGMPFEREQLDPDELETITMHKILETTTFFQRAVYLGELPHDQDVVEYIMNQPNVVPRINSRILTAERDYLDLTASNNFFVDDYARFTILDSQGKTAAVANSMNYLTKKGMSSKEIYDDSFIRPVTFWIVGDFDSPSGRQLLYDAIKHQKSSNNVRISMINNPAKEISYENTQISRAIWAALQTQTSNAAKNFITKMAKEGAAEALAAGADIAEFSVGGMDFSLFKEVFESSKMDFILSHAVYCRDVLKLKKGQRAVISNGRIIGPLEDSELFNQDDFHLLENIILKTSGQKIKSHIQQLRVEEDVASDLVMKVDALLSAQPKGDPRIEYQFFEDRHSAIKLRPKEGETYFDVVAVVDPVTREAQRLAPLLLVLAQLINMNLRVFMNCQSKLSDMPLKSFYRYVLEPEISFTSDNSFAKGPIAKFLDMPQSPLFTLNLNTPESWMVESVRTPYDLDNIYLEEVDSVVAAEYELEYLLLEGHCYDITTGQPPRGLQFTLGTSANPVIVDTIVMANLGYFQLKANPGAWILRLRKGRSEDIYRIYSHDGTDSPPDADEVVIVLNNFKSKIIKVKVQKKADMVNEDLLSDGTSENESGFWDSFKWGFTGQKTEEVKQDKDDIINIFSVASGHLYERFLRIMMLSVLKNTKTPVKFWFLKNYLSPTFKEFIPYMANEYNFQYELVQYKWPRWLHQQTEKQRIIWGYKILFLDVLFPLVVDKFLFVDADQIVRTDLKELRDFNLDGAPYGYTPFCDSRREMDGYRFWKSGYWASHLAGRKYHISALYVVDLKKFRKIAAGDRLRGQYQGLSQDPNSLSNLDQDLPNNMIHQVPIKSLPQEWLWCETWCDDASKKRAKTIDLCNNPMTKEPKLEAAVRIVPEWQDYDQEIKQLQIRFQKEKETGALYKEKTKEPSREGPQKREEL
# UniProt Q9BS26: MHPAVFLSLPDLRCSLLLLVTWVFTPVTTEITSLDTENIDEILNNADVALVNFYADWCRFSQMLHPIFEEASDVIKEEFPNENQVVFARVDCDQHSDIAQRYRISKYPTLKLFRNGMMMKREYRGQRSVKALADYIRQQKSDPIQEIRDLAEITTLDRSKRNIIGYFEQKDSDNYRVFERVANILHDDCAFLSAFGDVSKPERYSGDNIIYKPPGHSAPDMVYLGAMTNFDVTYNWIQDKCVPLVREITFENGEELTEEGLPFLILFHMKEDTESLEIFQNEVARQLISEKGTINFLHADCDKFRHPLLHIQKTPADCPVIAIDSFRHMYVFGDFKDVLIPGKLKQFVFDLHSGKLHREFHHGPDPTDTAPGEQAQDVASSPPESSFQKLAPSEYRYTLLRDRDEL
# UniProt Q96BW1: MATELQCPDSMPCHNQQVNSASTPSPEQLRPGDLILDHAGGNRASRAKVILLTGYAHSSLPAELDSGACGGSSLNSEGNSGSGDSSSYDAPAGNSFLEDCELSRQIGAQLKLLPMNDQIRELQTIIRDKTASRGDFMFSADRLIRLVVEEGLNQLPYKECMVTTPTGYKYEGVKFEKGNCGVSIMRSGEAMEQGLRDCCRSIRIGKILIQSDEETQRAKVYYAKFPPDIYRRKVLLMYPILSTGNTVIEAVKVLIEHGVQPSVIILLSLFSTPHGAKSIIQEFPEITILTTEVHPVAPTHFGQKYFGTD
# UniProt Q14157: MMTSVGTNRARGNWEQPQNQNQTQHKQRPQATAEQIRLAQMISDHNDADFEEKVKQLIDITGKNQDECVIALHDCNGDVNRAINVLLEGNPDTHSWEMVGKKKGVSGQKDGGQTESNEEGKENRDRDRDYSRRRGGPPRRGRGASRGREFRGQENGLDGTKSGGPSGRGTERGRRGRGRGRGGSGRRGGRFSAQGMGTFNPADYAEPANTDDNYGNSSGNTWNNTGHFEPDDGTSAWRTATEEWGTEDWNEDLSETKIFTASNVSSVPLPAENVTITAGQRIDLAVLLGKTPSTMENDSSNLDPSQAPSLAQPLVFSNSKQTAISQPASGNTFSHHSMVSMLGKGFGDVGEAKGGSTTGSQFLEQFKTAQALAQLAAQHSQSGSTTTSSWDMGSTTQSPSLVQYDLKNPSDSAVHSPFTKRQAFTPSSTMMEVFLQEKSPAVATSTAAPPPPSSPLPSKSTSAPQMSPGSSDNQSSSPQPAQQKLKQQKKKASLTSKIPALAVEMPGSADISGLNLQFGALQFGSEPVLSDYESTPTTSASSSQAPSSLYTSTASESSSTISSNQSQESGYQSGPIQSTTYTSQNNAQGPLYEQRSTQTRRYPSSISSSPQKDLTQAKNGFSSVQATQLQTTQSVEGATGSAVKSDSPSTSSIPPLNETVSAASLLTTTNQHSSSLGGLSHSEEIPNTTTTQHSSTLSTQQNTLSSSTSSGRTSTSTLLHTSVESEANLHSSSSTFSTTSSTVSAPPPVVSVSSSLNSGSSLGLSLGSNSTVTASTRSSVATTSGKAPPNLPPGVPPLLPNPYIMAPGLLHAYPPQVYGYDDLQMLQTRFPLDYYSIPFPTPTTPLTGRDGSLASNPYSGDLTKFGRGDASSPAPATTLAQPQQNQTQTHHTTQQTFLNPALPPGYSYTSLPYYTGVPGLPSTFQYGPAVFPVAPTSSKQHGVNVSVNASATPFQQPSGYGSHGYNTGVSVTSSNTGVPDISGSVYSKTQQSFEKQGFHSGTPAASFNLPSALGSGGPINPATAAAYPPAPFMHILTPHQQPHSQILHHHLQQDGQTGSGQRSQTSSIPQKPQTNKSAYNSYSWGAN
# UniProt P47985: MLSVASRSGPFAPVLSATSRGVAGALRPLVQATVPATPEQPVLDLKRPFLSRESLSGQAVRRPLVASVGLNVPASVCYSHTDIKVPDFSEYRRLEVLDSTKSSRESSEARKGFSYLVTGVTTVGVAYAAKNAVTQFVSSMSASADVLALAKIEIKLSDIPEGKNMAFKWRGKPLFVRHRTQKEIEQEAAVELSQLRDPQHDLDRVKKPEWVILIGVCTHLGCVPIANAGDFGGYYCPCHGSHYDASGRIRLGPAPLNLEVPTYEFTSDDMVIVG
# This is one part of the list.
# Compound: COc1ccc(Cn2ccc3cc(C)c(C(=O)NO)cc32)cc1
# Assay: dose-dependent thermal stabilisation call (2D-TPP, DLPTP, 10% FDR) (binary (1 = stabilised)); higher = stabilised by the compound
# Conditions: system: HL-60 intact cells; concentration range 0.04-10 µM
# Method: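 2D thermal proteome profiling in intact HL-60 cells treated with BRD-3811 (0, 0.04, 0.29, 2, 10 uM) for 90 min at 37 C, then heated 3 min at one of 12 temperatures (42-63.9 C). Soluble protein was quantified by TMT10 MS. The value is the DLPTP call of the paper: dose-dependent thermal stabilisation over all temperatures at 10% FDR (F-test of a dose-response against a flat model); one experiment, one call per tested protein.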
row,Target,dose-dependent thermal stabilisation call
1,TTC39C (UniProt Q8N584),inactive: 0
2,UBR1 (UniProt Q8IWV7),inactive: 0
3,UGCGL1 (UniProt Q9NYU2),inactive: 0
4,UHRF1BP1 (UniProt Q6BDS2),inactive: 0
5,TXNDC4 (UniProt Q9BS26),inactive: 0
6,UPRT (UniProt Q96BW1),inactive: 0
7,VPS35 (UniProt Q96QK1),inactive: 0
8,UBAP2L (UniProt Q14157),inactive: 0
9,UQCRFS1 (UniProt P47985),inactive: 0

# Numbers 1 through 2, reprinted for reference:
row,Target,dose-dependent thermal stabilisation call
1,TTC39C (UniProt Q8N584),inactive: 0
2,UBR1 (UniProt Q8IWV7),inactive: 0
